Data as given in the supplement of paper PMC12067093, “Discovery and optimisation of a covalent ligand for TRIM25 and its application to targeted protein ubiquitination” (Chemical Science, 2025).
Some of the results follow.

Protein sequences, listed by entry. Tags and fused reporters are not part of them. Lines headed by an entry give the natural chain unless they say otherwise; changes in a name come on top.
UniProt P98170, whole entry, looked up: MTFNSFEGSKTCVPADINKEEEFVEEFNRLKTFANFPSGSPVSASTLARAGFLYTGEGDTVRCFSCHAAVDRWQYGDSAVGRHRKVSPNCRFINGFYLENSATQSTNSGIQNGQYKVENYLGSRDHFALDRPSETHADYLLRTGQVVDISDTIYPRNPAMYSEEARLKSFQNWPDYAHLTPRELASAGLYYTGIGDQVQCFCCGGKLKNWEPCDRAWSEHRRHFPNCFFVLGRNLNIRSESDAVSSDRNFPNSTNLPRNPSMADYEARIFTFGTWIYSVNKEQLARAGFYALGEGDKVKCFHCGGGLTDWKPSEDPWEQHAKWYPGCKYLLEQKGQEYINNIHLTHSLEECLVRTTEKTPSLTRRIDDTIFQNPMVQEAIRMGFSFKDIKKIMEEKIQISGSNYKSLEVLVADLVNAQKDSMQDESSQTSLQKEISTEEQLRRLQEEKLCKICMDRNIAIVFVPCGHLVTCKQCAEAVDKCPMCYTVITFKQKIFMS
UniProt Q8WVS4: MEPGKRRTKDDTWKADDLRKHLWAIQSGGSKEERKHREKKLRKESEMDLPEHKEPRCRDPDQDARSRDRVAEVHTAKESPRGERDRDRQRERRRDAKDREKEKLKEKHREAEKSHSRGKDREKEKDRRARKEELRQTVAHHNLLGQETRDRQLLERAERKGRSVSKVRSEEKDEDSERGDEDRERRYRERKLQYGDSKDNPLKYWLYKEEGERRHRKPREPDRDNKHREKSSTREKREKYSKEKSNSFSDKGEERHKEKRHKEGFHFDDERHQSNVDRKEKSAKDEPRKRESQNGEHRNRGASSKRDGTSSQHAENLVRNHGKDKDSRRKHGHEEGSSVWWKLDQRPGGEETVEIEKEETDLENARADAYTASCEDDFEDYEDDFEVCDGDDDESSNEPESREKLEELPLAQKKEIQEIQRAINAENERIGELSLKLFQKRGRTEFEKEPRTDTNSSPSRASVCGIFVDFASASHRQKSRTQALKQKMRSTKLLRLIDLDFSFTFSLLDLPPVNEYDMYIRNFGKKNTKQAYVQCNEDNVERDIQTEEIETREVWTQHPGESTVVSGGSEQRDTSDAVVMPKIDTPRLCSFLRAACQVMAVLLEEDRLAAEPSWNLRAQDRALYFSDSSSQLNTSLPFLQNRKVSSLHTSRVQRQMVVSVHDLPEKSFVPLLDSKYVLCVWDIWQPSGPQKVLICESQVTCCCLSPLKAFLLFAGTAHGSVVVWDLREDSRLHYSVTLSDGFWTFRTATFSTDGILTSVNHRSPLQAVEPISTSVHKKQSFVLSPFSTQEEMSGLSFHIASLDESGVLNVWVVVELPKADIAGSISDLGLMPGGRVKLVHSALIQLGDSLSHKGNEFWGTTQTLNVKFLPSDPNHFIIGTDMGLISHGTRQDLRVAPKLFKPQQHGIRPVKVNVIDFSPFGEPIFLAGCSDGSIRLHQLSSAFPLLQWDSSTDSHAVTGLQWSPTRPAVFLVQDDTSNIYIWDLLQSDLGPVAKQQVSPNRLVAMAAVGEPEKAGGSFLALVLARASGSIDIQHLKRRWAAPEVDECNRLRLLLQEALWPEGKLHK
UniProt Q6PJI9: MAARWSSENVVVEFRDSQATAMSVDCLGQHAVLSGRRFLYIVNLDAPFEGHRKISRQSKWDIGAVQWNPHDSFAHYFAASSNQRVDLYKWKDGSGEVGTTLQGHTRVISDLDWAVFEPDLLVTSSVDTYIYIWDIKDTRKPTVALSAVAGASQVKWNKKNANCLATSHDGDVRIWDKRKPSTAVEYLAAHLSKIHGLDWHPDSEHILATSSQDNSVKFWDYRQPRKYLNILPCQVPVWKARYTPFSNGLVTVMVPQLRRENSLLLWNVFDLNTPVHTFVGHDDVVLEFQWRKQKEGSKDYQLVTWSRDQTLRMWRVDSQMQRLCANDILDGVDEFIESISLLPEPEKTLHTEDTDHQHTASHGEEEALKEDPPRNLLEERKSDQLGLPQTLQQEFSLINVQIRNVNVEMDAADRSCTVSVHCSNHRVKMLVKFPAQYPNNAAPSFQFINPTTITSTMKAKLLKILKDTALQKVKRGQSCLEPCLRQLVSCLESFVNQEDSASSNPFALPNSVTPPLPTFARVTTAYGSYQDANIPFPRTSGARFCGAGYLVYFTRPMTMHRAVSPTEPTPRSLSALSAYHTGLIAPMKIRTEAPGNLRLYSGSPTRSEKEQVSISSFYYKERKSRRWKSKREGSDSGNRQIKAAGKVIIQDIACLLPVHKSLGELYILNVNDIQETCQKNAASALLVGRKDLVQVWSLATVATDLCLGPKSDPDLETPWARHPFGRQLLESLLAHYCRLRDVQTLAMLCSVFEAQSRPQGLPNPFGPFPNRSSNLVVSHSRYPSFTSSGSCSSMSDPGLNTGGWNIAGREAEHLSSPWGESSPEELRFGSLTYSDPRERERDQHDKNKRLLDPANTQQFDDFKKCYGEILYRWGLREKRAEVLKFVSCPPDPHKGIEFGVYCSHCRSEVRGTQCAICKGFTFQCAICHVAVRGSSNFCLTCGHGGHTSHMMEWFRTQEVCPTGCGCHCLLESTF
UniProt Q5JSH3: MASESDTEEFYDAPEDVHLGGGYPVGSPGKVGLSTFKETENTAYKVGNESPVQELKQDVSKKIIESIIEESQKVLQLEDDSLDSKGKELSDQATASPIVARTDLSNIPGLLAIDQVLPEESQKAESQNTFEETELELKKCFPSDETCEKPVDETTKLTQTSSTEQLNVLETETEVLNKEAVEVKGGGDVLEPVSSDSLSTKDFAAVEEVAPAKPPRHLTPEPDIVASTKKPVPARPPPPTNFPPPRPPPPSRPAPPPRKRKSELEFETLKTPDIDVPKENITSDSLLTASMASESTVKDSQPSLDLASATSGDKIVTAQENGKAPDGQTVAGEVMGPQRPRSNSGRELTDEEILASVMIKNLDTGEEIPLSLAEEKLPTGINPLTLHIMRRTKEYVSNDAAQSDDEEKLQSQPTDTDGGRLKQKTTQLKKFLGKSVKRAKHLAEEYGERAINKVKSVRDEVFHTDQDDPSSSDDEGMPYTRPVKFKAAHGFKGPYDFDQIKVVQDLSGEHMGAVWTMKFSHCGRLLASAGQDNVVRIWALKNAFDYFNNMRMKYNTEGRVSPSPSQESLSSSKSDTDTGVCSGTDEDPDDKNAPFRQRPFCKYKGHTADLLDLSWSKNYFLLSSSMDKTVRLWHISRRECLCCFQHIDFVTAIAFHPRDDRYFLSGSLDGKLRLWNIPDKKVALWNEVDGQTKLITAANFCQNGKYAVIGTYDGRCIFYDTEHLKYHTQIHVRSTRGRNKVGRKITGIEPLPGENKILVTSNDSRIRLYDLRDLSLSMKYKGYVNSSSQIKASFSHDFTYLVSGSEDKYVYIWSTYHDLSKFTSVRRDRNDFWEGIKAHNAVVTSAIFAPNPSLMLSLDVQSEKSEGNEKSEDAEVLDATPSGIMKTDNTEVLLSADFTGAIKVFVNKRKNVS
UniProt Q6UXN9, whole entry, looked up: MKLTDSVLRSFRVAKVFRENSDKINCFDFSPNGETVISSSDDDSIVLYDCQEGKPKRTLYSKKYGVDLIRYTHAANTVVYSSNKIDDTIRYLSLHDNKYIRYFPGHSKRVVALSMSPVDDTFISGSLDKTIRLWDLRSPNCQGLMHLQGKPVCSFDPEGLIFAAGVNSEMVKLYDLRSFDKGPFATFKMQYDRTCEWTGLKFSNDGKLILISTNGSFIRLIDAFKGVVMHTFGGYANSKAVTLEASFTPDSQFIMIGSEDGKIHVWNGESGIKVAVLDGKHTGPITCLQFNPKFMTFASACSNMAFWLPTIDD
UniProt O75083: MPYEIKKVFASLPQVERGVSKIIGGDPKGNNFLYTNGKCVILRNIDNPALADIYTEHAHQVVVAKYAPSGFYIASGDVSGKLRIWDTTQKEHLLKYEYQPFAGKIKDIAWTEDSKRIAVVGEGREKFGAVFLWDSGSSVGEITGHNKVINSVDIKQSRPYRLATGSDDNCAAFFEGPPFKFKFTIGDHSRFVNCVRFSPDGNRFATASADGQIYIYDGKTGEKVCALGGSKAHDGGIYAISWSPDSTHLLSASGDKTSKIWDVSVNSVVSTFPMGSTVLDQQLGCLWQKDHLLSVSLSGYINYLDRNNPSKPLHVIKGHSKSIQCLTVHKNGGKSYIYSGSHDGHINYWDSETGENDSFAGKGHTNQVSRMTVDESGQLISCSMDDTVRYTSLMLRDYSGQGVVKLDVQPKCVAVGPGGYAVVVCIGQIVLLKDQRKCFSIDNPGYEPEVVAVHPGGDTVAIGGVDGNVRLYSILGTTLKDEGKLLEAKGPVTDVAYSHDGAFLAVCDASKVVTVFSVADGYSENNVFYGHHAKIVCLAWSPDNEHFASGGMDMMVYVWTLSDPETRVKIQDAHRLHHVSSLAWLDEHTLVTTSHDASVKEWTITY
UniProt Q9NW82: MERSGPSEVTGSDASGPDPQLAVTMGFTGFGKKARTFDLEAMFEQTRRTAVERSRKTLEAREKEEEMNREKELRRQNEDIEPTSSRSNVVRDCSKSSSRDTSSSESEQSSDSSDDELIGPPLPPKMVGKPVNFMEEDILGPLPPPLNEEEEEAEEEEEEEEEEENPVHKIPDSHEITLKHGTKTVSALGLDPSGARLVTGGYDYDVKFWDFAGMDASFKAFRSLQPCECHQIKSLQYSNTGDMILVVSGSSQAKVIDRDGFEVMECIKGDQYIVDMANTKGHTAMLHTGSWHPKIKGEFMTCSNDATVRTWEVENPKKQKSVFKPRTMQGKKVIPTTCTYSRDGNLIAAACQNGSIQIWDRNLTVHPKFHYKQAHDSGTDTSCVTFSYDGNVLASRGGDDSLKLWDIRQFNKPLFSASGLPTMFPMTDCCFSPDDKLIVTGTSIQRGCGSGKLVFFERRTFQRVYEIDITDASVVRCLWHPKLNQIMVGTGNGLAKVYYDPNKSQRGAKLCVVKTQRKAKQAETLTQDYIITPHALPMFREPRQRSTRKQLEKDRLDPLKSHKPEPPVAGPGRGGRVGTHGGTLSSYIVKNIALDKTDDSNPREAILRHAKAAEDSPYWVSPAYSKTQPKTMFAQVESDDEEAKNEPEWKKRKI
UniProt Q9HAD4: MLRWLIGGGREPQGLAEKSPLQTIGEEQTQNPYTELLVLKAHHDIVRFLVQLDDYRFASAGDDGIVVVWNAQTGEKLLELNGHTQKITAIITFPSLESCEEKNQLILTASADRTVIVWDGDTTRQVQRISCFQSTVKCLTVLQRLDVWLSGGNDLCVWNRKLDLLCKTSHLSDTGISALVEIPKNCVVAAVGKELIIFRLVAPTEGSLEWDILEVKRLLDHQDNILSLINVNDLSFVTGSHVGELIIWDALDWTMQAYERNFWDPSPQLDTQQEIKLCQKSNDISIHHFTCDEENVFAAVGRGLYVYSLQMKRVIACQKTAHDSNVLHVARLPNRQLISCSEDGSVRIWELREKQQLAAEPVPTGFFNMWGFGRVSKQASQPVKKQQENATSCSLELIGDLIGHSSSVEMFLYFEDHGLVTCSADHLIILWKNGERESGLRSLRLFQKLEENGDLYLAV
UniProt Q96HA8: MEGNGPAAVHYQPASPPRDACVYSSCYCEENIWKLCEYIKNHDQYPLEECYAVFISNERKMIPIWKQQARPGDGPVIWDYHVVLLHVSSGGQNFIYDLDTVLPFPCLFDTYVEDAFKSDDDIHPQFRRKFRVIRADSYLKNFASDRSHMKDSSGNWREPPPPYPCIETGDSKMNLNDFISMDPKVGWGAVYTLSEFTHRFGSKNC
UniProt O15213: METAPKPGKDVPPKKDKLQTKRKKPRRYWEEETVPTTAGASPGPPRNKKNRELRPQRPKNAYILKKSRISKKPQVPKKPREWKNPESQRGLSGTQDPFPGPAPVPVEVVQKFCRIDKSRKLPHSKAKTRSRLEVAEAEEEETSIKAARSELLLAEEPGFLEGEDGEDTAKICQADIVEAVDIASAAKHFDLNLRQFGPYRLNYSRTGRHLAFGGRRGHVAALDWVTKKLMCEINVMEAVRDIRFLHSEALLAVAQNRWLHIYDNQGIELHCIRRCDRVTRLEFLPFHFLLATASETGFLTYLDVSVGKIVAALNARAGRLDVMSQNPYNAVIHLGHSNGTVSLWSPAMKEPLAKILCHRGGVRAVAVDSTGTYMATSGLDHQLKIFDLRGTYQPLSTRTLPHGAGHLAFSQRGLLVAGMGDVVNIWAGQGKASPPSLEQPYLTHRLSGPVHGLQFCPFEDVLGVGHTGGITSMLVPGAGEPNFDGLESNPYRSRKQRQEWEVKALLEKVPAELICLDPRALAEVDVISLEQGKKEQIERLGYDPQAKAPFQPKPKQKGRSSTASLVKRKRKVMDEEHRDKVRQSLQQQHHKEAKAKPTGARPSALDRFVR
UniProt Q6GPH4: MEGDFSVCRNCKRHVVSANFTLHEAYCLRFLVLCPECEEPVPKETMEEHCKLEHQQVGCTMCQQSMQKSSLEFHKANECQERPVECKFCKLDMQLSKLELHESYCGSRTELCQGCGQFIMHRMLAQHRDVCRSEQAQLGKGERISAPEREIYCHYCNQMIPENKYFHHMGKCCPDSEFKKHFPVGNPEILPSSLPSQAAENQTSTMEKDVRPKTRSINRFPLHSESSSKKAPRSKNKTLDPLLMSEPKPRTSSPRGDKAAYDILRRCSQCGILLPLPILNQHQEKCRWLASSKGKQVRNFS

Compound: Cc1cc(ccc1-c1ccccc1)C(=O)N1CCCN(CC1)C(=O)CCl [compound 10]
Assay: probe-labelled cysteine peptide fold change vs DMSO (competition) (log2 fold change); higher = less target engagement (more negative = stronger competition)
Conditions: THP-1, incubation time: 4 h
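Further: competitive profiling in live THP-1 cells: cysteine peptides tagged with an iodoacetamide desthiobiotin (IA-DTB) probe, intensity after compound treatment relative to DMSO-treated cells.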

Target | probe-labelled cysteine peptide fold change (10 µM) | probe-labelled cysteine peptide fold change (50 µM)
WDR25_Q64LD2_429_FTCPSLALHPR (UniProt Q64LD2) | -0.0138 | 0.0311
WDR76_Q9H967_81_NSNNEVACKK (UniProt Q9H967) | -0.446 | -0.599
WIZ_O95785_1048_CEFCGEFFENR (UniProt O95785) | 0.292 | 0.422
WDR92_Q96MX6_184_VVCAGYDNGDIK (UniProt Q96MX6) | 0.0428 | 0.188
WDR47_O94967_322_SLNPALDGLTCGLTSHDK (UniProt O94967) | -0.159 | -0.017
WDR37_Q9Y2I8_330_TANLYDVETSELVHSLTGHDQELTHCCTHPTQR (UniProt Q9Y2I8) | 0.146 | -0.151
XIAP_P98170_474_QCAEAVDK (UniProt P98170) | -0.0288 | -0.307
WDR48_Q8TAF3_225_DGTQCLSGSSDGTIR (UniProt Q8TAF3) | 0.000326 | -0.0528
WIZ_O95785_1399_TSHSSTEACCELCGLYFENR (UniProt O95785) | 0.339 | 0.377
WDR6_Q9NNW5_813_AEMHCFSIMVTPDPSTPSR (UniProt Q9NNW5) | -0.184 | -0.204
WDR43_Q15061_372_EPHMCLVR (UniProt Q15061) | -0.0383 | -0.00313
XIAP_P98170_351_GQEYINNIHLTHSLEECLVR (UniProt P98170) | 0.13 | -0.242
WDR37_Q9Y2I8_8_PTESASCSTAR (UniProt Q9Y2I8) | -0.0903 | -0.545
WDFY4_Q6ZS81_582_IFLDDECYR (UniProt Q6ZS81) | -0.0212 | -0.613
XAB2_Q9HCS7_86+98_CVTDPAYEDVNNCHER (UniProt Q9HCS7) | -0.113 | -0.69
WDR3_Q9UNX4_296_ILACHGTDSVLELFCILSK (UniProt Q9UNX4) | -0.000721 | 0.0273
WDR6_Q9NNW5_981_LGTPSLTLQAHSCGINSLHTLPTR (UniProt Q9NNW5) | 0.0732 | 0.149
WDR92_Q96MX6_339_GLCVCSSFDQTVR (UniProt Q96MX6) | 0.0179 | 0.0292
WDR60_Q8WVS4_1047_WAAPEVDECNR (UniProt Q8WVS4) | -0.304 | -0.717
WDR12_Q9GZL7_184+185_ALHCCR (UniProt Q9GZL7) | -0.224 | -0.338
WDFY4_Q6ZS81_2283_IQEQLFGELGLWSQGEETKPCSPWELDWR (UniProt Q6ZS81) | -0.0269 | -0.494
WDR76_Q9H967_214_RENGIGCR (UniProt Q9H967) | -0.26 | -0.134
WDR77_Q9BQA1_172_AHAAQVTCVAASPHK (UniProt Q9BQA1) | 0.0618 | 0.254
WASHC5_Q12768_969_QQIANELNYSCR (UniProt Q12768) | 0.0159 | -0.000576
WDFY3_Q8IZQ1_1600_FGQFISSTLPTFAVCEK (UniProt Q8IZQ1) | 0.0647 | -0.255
WDR59_Q6PJI9_888_FVSCPPDPHK (UniProt Q6PJI9) | 0.00129 | 0.119
WASHC5_Q12768_385_WLMLHTADSACDPNNKR (UniProt Q12768) | -2.11 | -2.63

Random excerpt: 6 entries already listed.
Target | probe-labelled cysteine peptide fold change (10 µM) | probe-labelled cysteine peptide fold change (50 µM)
WDR60_Q8WVS4_1047_WAAPEVDECNR (UniProt Q8WVS4) | -0.304 | -0.717
WDR47_O94967_322_SLNPALDGLTCGLTSHDK (UniProt O94967) | -0.159 | -0.017
WDFY3_Q8IZQ1_1600_FGQFISSTLPTFAVCEK (UniProt Q8IZQ1) | 0.0647 | -0.255
WDR6_Q9NNW5_981_LGTPSLTLQAHSCGINSLHTLPTR (UniProt Q9NNW5) | 0.0732 | 0.149
WDR3_Q9UNX4_296_ILACHGTDSVLELFCILSK (UniProt Q9UNX4) | -0.000721 | 0.0273
WDR76_Q9H967_214_RENGIGCR (UniProt Q9H967) | -0.26 | -0.134

(list continues)

Target | probe-labelled cysteine peptide fold change (10 µM) | probe-labelled cysteine peptide fold change (50 µM)
XIAP_P98170_90_KVSPNCR (UniProt P98170) | -0.159 | -0.396
WDR44_Q5JSH3_147_CFPSDETCEKPVDETTK (UniProt Q5JSH3) | -0.441 | -0.129
WDR82_Q6UXN9_141_SPNCQGLMHLQGK (UniProt Q6UXN9) | 0.107 | 0.319
WDR1_O75083_382_MTVDESGQLISCSMDDTVR (UniProt O75083) | 0.0605 | 0.328
WDFY4_Q6ZS81_835_QWPDLEERMDEGDAAIMHPGVVCIMVR (UniProt Q6ZS81) | -0.252 | -0.485
WDR37_Q9Y2I8_417_INVCVGQK (UniProt Q9Y2I8) | 0.00743 | -0.227
WDR3_Q9UNX4_70_QEVTCLCPSPDGLHLAVGYEDGSIR (UniProt Q9UNX4) | -0.0576 | 0.153
WDFY4_Q6ZS81_2449_HCLSNISDPFIFNLCSK (UniProt Q6ZS81) | -0.171 | -0.206
WDR92_Q96MX6_337+339_GLCVCSSFDQTVR (UniProt Q96MX6) | -0.136 | -0.244
WDR70_Q9NW82_383_QAHDSGTDTSCVTFSYDGNVLASR (UniProt Q9NW82) | 0.268 | -0.00931
WDR4_P57081_95_TKPWQCLSVR (UniProt P57081) | -0.151 | -0.0446
WDR12_Q9GZL7_97_YTAPQPEQCMFHDDWISSIK (UniProt Q9GZL7) | 0.107 | 0.0834
WDR4_P57081_227_QLHCCHLASLQELVDPQAPQK (UniProt P57081) | 0.203 | 0.292
WRN_Q14191_1070_ANTESQSLILQANEELCPK (UniProt Q14191) | -0.188 | -0.54
WASHC5_Q12768_838_MTCHIDQLNTWYDMK (UniProt Q12768) | 0.028 | -0.0245
WDR6_Q9NNW5_26_ATSELILLPVTGLECVGDR (UniProt Q9NNW5) | 0.132 | 0.26
XPNPEP1_Q9NQW7_279_ALCADLSPR (UniProt Q9NQW7) | 0.19 | 0.0511
WDR76_Q9H967_81_NSNNEVACK (UniProt Q9H967) | -0.462 | -0.141
WDR92_Q96MX6_70_CGTFGATSLQQR (UniProt Q96MX6) | -0.18 | -0.264
WDR41_Q9HAD4_99_ITAIITFPSLESCEEK (UniProt Q9HAD4) | 0.176 | -0.157
WDR1_O75083_194_FVNCVR (UniProt O75083) | 0.0979 | -0.0458
WDR24_Q96S15_189_VCFHPTEAHVLLSGSQDGFMK (UniProt Q96S15) | 0.316 | 0.359
WDR11_Q9BZH6_1071_LAEGVQLLCLIDK (UniProt Q9BZH6) | 0.0605 | -0.0475
WDR59_Q6PJI9_26_DSQATAMSVDCLGQHAVLSGR (UniProt Q6PJI9) | -0.0263 | 0.187
WDR44_Q5JSH3_642_ECLCCFQHIDFVTAIAFHPR (UniProt Q5JSH3) | 0.254 | 0.531
WRN_Q14191_197_CSNWSK (UniProt Q14191) | -0.339 | -0.848
WDR3_Q9UNX4_70+72_QEVTCLCPSPDGLHLAVGYEDGSIR (UniProt Q9UNX4) | 0.093 | 0.237

Target | probe-labelled cysteine peptide fold change (10 µM) | probe-labelled cysteine peptide fold change (50 µM)
WDR70_Q9NW82_302_GEFMTCSNDATVR (UniProt Q9NW82) | 0.0185 | 0.175
WDYHV1_Q96HA8_50_NHDQYPLEECYAVFISNER (UniProt Q96HA8) | 0.23 | 0.165
XPO1_O14980_34_LDINLLDNVVNCLYHGEGAQQR (UniProt O14980) | 0.06 | 0.0188
WRNIP1_Q96S55_39_CLLLHPAGHAEPAAGSHR (UniProt Q96S55) | 0.0993 | 0.3
WASHC5_Q12768_521_TVQLIQALEEVQEFHQLESNLQVCQFLADTRK (UniProt Q12768) | 0.198 | 0.314
XPC_Q01831_536_SIAGIDQWLEVFCEQEEK (UniProt Q01831) | 0.167 | 0.0258
XPC_Q01831_814_KLDIDCVQAITGFDFHGGYSHPVTDGYIVCEEFK (UniProt Q01831) | -0.21 | -0.394
WDR46_O15213_172_ICQADIVEAVDIASAAK (UniProt O15213) | 0.083 | 0.0398
WDR62_O43379_599_DIQMISCGADK (UniProt O43379) | 0.0358 | -0.419
WDR46_O15213_271_WLHIYDNQGIELHCIR (UniProt O15213) | 0.0322 | 0.087
XAF1_Q6GPH4_105_LELHESYCGSR (UniProt Q6GPH4) | 0.0807 | 0.166
WDYHV1_Q96HA8_165_DSSGNWREPPPPYPCIETGDSK (UniProt Q96HA8) | -0.175 | -0.355
WDFY3_Q8IZQ1_2094_SQGLSLDAVYHCLNR (UniProt Q8IZQ1) | 0.0981 | -0.178
WDR81_Q562E7_1226_ILLDTACK (UniProt Q562E7) | -0.218 | -0.0214
XPC_Q01831_558_WVCVDCVHGVVGQPLTCYK (UniProt Q01831) | 0.0771 | 0.173
XIAP_P98170_471_NIAIVFVPCGHLVTCK (UniProt P98170) | 0.0582 | -0.142
XIAP_P98170_12_TCVPADINKEEEFVEEFNR (UniProt P98170) | -0.356 | -0.413
WDHD1_O75717_781_CVELADLMTQNAVNLAIK (UniProt O75717) | 0.0763 | 0.0772
WDR41_Q9HAD4_131_ISCFQSTVK (UniProt Q9HAD4) | -0.0174 | -0.338
WDR36_Q8NI36_311_TDGHPVMAAGSPCGHIGLWDLEDK (UniProt Q8NI36) | 0.00283 | 0.0431
WDR26_Q9H7D7_316_CLYHNTK (UniProt Q9H7D7) | 0.135 | -0.0391
WDR66_Q8TBY9_567_SNYPPDCTLK (UniProt Q8TBY9) | 0.245 | 0.47
WDR82_Q6UXN9_195_TCEWTGLK (UniProt Q6UXN9) | -0.0459 | 0.418
WDR91_A4D1P6_684_LFAFDSEGNYMLTCSATGGVIYK (UniProt A4D1P6) | 0.152 | 0.4
WDR81_Q562E7_765_VQPAVPLQCLLHR (UniProt Q562E7) | -0.00443 | -0.0254
WDFY4_Q6ZS81_264_AQNLSIIQYLQATDCVR (UniProt Q6ZS81) | 0.197 | -0.105
